4 substances from publication PMC8231590 can be followed below.

Amino acid sequences for entries named in this document (tags omitted). Residues count along the entry.
UniProt Q01196, residues 106-453: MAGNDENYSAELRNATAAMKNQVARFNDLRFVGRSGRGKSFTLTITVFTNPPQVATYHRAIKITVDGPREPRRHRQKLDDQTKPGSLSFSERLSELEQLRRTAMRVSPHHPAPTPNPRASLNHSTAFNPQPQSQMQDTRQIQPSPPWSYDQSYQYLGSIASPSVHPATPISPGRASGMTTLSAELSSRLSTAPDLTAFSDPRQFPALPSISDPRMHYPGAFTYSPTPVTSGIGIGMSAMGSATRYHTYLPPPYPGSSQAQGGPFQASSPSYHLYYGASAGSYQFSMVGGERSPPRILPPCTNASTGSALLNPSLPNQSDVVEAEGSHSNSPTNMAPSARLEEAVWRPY
UniProt Q9UD57: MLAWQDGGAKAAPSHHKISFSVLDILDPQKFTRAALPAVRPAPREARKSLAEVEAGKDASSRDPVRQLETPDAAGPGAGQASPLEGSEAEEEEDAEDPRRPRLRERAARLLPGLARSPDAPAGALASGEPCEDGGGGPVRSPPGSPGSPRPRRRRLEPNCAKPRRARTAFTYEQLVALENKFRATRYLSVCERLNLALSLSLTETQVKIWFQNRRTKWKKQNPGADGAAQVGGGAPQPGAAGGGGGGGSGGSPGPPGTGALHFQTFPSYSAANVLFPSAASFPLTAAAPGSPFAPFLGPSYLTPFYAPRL

The target of this assay is T1, mOGT-HaloTag fusion protein (mitochondrial O-GlcNAc transferase, full-length, with C-terminal HaloTag) (human) (UniProt O15294).
T1 sequence: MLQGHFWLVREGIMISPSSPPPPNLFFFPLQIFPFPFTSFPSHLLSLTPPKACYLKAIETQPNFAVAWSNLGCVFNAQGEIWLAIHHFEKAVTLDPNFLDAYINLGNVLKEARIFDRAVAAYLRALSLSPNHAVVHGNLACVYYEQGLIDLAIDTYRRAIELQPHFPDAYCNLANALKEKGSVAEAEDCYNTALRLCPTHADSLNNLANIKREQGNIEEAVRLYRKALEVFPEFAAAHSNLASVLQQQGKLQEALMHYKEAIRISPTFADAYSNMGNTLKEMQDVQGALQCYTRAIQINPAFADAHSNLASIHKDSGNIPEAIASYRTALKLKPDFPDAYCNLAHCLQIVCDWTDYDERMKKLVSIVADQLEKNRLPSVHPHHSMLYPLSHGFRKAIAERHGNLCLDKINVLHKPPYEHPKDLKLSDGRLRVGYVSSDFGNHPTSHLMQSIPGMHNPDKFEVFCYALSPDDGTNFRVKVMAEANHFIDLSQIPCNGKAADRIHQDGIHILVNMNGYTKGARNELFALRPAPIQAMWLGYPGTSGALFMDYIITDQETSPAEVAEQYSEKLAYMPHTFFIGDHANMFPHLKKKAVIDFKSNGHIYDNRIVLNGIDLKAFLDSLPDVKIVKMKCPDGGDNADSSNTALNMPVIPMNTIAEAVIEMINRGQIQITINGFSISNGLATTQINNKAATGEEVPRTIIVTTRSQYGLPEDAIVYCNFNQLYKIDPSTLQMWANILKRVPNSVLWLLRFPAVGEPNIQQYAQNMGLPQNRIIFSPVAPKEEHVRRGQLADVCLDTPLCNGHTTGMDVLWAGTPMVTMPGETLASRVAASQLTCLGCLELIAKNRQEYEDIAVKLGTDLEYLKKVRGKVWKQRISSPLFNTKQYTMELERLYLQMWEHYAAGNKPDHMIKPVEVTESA
The assay is described as follows: affinity purification with mass spectrometry; mOGT-HaloTag covalently captured on HaloLink Resin from about 500 ug of mitochondria-enriched lysate of transfected breast cancer cells (co-transfected with ncOGT siRNA); binding buffer 100 mM Tris-HCl, 150 mM NaCl, 0.05% IGEPAL CA-630, pH 7.6, overnight at 4 °C; four washes; eluted proteins resolved by SDS-PAGE and identified by LC-MS/MS; HaloTag alone as negative control.

These are yes or no findings as the source states them, for the method shown. In cells and extracts the contact can be indirect. Here binding means that the protein was enriched with, or labelled near, the bait; the list need not be complete. Sequences can lack the tags named with a protein.

With “Isoform AML-1L of Runt-related transcription factor 1 (from UniProt Q01196-11 1-348)”, the binding entry was “binds”.
For the substance “NK1 transcription factor-related protein 2 (from UniProt Q9UD57 1-310)”, the binding result is listed as “binds”.
The same measure for “Isoform 10 of Transcriptional repressor CTCFL”: “binds”; for “Isoform 2 of Chromodomain-helicase-DNA-binding protein 1”: “binds”.
